The target in this assay is NS5A of HCV Jc1 in HCV replicating cells (hepatitis C virus, Jc1) (UniProt Q99IB8). The assay can be described thus: co-IP; Huh7.5 cells electroporated with 10 ug of Jc1 RNA, lysates at 4 days; immunoprecipitated with rabbit anti-NS5A antibody or control IgG, blot with anti-ANKRD1 antibody.

The chains behind the UniProt entries cited, without tags or fusion partners. Residues count along the entry.
UniProt Q99IB8, residues 1977-2442: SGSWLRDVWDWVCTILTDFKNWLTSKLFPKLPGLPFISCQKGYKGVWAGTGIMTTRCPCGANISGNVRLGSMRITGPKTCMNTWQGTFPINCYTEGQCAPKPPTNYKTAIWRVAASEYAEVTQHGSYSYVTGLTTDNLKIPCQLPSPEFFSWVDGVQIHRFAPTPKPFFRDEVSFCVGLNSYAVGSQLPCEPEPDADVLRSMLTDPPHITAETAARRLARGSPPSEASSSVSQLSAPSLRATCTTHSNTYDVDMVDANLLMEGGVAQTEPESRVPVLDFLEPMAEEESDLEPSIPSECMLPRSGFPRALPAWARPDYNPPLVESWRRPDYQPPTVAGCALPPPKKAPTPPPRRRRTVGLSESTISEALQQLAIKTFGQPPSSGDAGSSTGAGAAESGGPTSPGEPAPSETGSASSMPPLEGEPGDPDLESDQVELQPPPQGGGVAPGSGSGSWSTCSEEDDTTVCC
UniProt Q15327: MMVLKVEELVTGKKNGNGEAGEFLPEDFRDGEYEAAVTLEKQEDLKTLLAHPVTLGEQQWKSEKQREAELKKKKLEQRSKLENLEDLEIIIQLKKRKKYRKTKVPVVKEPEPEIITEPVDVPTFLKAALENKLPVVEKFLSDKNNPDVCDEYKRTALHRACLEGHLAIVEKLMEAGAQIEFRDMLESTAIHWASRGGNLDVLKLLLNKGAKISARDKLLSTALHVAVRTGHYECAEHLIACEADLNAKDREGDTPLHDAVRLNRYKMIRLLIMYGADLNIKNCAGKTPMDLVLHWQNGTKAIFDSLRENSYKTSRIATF

Results are given in words; binding and its absence hold for the method and conditions named. Binding seen in cells or lysates may run through a third protein. Some results given as binding are weak or reduced against the parent protein; the word gives no strength.

“endogenous ANKRD1 (from UniProt Q15327 1-319)”: the binding result is “binds”.

The values are drawn from publication PMC4748412.
